1 substance from PMC5424160 can be followed below.

By UniProt entry, the sequences of proteins in these tests, tags left out.
UniProt P01106: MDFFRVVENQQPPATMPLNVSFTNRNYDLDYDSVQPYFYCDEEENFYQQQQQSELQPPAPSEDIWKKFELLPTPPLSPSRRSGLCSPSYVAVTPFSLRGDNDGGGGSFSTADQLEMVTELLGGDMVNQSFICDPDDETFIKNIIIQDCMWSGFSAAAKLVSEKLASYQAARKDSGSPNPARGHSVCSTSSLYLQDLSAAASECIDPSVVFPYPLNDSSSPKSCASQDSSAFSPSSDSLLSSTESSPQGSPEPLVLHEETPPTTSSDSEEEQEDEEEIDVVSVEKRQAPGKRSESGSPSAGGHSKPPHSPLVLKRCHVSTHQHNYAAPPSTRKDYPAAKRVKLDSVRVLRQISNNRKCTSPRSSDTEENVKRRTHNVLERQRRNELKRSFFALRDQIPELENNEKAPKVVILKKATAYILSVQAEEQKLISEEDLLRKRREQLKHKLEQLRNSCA

In test [1] the target is T1, endogenous Menin (human (endogenous in 293T)) (UniProt O00255).
T1 sequence: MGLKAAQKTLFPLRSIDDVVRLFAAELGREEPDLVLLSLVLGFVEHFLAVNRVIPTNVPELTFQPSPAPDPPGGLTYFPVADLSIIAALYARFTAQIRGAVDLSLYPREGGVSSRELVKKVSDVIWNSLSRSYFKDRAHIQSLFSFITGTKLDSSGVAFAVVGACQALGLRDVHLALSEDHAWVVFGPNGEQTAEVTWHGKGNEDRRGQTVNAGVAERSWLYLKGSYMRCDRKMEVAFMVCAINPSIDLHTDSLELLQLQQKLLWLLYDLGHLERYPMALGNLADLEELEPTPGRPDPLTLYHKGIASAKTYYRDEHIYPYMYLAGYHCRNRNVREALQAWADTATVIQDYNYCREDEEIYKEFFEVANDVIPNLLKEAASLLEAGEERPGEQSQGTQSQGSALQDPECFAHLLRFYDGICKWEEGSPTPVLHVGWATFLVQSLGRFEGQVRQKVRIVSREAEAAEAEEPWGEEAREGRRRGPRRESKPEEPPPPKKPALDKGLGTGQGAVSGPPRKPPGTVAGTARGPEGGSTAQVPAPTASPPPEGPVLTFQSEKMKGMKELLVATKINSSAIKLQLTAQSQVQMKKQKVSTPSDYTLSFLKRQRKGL
The test can be described thus: co-IP; endogenous proteins, 293T cells lysed in high-salt IP buffer (0.5% NP-40, 20 mM HEPES pH 7.5, 300 mM NaCl, 2 mM EDTA); IP with anti-Menin antibody or IgG.

The target in test [2] is T1, endogenous Menin (human (endogenous in 293T)). The test is described as follows: co-IP; endogenous proteins, cells lysed in low-salt IP buffer (150 mM NaCl), side by side with the high-salt IP; IP of Menin.

These are yes or no findings as the source states them, for the method shown. Binding seen in cells or lysates may run through a third protein. Some binding calls cover weakened binding; strength is not graded here.

For the substance “endogenous MYC (from UniProt P01106 1-454)”, the binding entry in test [1] and in test [2] was “binds” each time.
